Results on four molecules are retold here after paper doi:10.1101/2021.05.17.443835.

Amino acid sequences for entries named in this document (tags omitted).
UniProt P49023: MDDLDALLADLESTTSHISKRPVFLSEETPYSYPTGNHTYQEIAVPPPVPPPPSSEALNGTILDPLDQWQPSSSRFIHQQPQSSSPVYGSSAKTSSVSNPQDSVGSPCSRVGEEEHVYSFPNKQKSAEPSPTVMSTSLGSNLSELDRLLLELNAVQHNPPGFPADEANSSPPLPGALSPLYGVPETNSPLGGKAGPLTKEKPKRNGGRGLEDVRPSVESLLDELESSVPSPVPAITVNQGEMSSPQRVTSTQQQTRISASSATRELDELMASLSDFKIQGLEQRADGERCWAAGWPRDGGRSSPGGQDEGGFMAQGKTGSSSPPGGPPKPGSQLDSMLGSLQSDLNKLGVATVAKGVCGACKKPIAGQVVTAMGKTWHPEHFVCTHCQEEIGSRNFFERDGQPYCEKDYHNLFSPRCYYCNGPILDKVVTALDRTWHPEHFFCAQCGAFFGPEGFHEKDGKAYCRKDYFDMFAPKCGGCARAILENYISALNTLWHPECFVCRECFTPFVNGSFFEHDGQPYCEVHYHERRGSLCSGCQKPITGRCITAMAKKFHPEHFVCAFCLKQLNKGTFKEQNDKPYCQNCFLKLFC
UniProt Q14155: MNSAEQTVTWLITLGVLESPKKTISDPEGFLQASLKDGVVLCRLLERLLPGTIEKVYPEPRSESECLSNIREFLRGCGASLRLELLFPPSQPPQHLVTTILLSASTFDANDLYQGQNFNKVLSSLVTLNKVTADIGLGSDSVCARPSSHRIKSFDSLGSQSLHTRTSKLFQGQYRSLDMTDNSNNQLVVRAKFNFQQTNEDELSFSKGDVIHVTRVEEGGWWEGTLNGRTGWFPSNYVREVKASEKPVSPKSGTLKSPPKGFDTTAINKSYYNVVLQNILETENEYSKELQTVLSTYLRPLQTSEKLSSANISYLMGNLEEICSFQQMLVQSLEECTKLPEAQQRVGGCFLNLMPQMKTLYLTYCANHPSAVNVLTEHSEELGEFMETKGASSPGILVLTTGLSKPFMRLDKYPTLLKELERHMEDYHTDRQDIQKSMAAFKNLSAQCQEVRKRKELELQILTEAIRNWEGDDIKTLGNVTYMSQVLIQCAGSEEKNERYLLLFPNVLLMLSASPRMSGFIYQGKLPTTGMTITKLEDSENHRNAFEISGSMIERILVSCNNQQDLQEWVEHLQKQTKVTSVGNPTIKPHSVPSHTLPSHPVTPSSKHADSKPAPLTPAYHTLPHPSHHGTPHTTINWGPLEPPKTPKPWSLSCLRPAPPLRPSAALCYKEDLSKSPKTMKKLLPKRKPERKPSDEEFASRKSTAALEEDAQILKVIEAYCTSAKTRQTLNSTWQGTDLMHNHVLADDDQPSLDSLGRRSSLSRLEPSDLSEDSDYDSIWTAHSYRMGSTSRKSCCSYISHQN
UniProt Q14160: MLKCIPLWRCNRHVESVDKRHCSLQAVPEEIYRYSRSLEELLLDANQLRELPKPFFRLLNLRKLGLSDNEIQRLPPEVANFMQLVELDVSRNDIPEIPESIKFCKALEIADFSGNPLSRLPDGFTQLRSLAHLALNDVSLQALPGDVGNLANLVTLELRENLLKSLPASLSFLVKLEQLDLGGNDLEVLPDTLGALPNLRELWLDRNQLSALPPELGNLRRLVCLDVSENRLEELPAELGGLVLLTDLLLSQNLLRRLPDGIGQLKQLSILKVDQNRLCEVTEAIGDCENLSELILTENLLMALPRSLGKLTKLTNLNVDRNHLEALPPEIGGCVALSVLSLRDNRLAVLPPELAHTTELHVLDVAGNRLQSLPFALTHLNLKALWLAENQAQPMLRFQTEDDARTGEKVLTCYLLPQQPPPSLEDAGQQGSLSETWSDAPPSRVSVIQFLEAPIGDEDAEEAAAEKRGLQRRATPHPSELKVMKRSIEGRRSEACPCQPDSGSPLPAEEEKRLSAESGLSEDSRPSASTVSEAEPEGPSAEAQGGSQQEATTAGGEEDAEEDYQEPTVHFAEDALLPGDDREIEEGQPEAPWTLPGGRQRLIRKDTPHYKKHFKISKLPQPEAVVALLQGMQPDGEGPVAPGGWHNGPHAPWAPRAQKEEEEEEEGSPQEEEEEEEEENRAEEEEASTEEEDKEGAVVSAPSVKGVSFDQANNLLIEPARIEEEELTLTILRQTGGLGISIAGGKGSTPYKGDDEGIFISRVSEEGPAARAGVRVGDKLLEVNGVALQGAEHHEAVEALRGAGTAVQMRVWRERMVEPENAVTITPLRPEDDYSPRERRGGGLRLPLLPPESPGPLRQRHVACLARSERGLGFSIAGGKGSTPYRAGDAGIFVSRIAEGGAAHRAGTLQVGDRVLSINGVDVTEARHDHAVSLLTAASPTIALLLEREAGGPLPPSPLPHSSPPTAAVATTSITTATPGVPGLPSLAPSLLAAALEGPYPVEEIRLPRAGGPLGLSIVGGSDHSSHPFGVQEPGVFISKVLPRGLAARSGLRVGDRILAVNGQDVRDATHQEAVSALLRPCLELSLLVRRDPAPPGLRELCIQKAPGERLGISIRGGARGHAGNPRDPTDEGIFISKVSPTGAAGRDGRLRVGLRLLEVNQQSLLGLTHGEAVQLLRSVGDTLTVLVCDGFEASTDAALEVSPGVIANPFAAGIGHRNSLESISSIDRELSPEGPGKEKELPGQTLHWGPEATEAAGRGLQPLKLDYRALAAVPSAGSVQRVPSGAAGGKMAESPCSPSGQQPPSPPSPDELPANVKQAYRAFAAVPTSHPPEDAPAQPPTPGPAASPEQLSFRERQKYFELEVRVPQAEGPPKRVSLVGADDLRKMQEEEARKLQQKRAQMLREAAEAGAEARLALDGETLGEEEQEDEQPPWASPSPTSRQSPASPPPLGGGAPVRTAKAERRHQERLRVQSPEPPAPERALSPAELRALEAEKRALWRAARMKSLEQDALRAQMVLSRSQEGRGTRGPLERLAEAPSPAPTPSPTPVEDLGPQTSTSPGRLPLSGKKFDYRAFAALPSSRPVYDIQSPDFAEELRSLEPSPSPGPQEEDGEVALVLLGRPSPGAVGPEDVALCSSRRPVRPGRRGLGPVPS
UniProt Q9Y2X7: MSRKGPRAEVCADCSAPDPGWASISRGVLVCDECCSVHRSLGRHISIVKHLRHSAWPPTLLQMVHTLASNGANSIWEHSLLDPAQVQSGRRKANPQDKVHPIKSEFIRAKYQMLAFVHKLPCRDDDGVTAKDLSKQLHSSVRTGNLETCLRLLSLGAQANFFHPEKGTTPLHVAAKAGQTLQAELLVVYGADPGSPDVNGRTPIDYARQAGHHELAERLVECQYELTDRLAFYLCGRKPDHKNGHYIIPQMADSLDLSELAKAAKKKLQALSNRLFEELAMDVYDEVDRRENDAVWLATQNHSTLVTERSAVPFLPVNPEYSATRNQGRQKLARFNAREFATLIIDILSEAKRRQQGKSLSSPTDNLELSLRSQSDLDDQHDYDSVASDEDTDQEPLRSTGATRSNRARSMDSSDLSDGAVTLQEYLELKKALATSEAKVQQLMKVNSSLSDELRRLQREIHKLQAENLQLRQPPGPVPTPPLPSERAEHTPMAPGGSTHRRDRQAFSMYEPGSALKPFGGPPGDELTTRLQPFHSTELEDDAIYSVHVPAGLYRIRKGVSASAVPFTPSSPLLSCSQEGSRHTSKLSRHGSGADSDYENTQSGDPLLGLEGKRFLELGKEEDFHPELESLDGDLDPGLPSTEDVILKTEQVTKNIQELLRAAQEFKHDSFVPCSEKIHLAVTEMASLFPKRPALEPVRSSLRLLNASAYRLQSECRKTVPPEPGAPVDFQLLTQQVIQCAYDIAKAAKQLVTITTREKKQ

No constants are given. Whether binding was seen depends on the method and setting. Binding seen in cells or lysates may run through a third protein. A yes stands for co-enrichment or nearness to the bait. Other partners may have been found.

The target in one test is myc-BioID2-Paxillin (UniProt P49023). The test is described as follows: proximity labelling.
The target of the next test is BioID-βPix (UniProt Q14155). Description: proximity labelling.

As for “ARHGEF7 (also known as βPix) (from UniProt Q14155 1-803)”, in the test with myc-BioID2-Paxillin, the binding result is “binds”.
Regarding SCRIB (from UniProt Q14160 1-1655), the binding result with BioID-βPix was “binds”.
On to GIT1 (from UniProt Q9Y2X7 1-761), for which the binding result in the test with myc-BioID2-Paxillin is recorded as “binds”.

B1: GIT2 (protein, UniProt Q14161 1-759)
chain: MSKRLRSSEVCADCSGPDPSWASVNRGTFLCDECCSVHRSLGRHISQVRHLKHTPWPPTLLQMVETLYNNGANSIWEHSLLDPASIMSGRRKANPQDKVHPNKAEFIRAKYQMLAFVHRLPCRDDDSVTAKDLSKQLHSSVRTGNLETCLRLLSLGAQANFFHPEKGNTPLHVASKAGQILQAELLAVYGADPGTQDSSGKTPVDYARQGGHHELAERLVEIQYELTDRLAFYLCGRKPDHKNGQHFIIPQMADSSLDLSELAKAAKKKLQSLSNHLFEELAMDVYDEVDRRETDAVWLATQNHSALVTETTVVPFLPVNPEYSSTRNQGRQKLARFNAHEFATLVIDILSDAKRRQQGSSLSGSKDNVELILKTINNQHSVESQDNDQPDYDSVASDEDTDLETTASKTNRQKSLDSDLSDGPVTVQEFMEVKNALVASEAKIQQLMKVNNNLSDELRIMQKKLQTLQSENSNLRKQATTNVYQVQTGSEYTDTSNHSSLKRRPSARGSRPMSMYETGSGQKPYLPMGEASRPEESRMRLQPFPAHIGRSALVTSSSSLPSFPSTLSWSRDESARRASRLEKQNSTPESDYDNTPNDMEPDGMGSSRKGRQRSMVWPGDGLVPDTAEPHVAPSPTLPSTEDVIRKTEQITKNIQELLRAAQENKHDSYIPCSERIHVAVTEMAALFPKKPKSDMVRTSLRLLTSSAYRLQSECKKTLPGDPGSPTDVQLVTQQVIQCAYDIAKAAKQLVTITTKENNN
As for B1, in the test with myc-BioID2-Paxillin, the binding entry is on record as “binds”.
